# PubChem BioAssay AID652259 – Drosophila RNAi Screening Center – 2013
# Assay: 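Identify new Wingless signalling regulators in fly cells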 (primary screen)
# System: Drosophila clone 8 imaginal disc epithelial cells
# Knock-down reagent: long dsRNA against Drosophila genes
# Treatment: pathway stimulated by co-transfected Wingless expression plasmid
# Detection: 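Firefly luciferase from a tcf-site Wingless reporter, measured alongside co-transfected Renilla luciferase that tracks transfection; pathway stimulated by a Wingless plasmid; the firefly-to-Renilla ratio is not deposited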
# Direction: firefly reporter light: higher = more Wg reporter light, before normalisation; Renilla control light: higher = more transfected or surviving cells
# Call rule: 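a knock-down is a candidate when at least two out of four statistical tests show it departing from its plate mean; one test alone signals a weak candidate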
# Meaning of the calls: active = candidate regulator (raises or lowers reporter); inactive = not a candidate
# The deposit covers about 22,000 reagents; this is a random part of those that have a named target and a result. Of all reagents, 233 (1.1%) got an active call. 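Light values are raw, unnormalised plate reads; the ratio scores behind the reporter calls were not deposited.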 Names joined by + are all predicted targets of the reagent. Not given: the amount of reagent, the time to read-out, the dose of the treatment.
predicted target,dsRNA,"reporter change call, replicate 1","firefly reporter light, replicate 1","firefly reporter light, replicate 2","Renilla control light, replicate 1","Renilla control light, replicate 2",call
Arl1 (GeneID 39745),DRSC09667,,10906,,4040,,inactive
grass (GeneID 43273),DRSC15911,,6394,,2357,,inactive
Pif2 (GeneID 170876),DRSC12525,,13058,,3200,,inactive
Scp1 (GeneID 3355102),DRSC20806,,21719,,10738,,inactive
CG2616 (GeneID 40915),DRSC15440,,15664,,2841,,inactive
CG6310 (GeneID 39237),DRSC10619,,7836,,3078,,inactive
tun (GeneID 36743),DRSC05592,,18721,,12448,,inactive
tun (GeneID 36743),DRSC07127,,16325,,5430,,inactive
Dnaaf4 (GeneID 34547),DRSC02405,,2995,8662,945,3525,inactive
Rab11 (GeneID 42501),DRSC16809,,13142,,5032,,inactive
fw (GeneID 32162),DRSC20334,,18149,,9170,,inactive
Flo2 (GeneID 32425),DRSC19062,,3652,,1361,,inactive
Flo2 (GeneID 32425),DRSC20244,,20839,,12960,,inactive
CG32846 (GeneID 318244),DRSC08012,,2432,,1170,,inactive
l(2)05714 (GeneID 46066),DRSC03118,,8784,,3403,,inactive
CG3081 (GeneID 31395),DRSC18571,,15312,,8052,,inactive
Rab3-GAP (GeneID 34626),DRSC02001,,18561,,5168,,inactive
eIF3m (GeneID 36565),DRSC07142,,9785,,2064,,inactive
natalisin (GeneID 5740700),DRSC14966,,8987,,1579,,inactive
natalisin (GeneID 5740700),DRSC14967,,20784,,4740,,inactive
GstZ1 (GeneID 41132),DRSC16478,,5754,,2672,,inactive
CG18568 (GeneID 36549),DRSC06768,,10266,,4058,,inactive
Naa35 (GeneID 37866),DRSC04447,,6275,,2827,,inactive
SelT (GeneID 33725),DRSC02732,,8869,,3098,,inactive
Dop1R1 (GeneID 41726),DRSC13020,,2996,,1130,,inactive
Dop1R1 (GeneID 41726),DRSC13021,,2673,,812,,inactive
Dop1R1 (GeneID 41726),DRSC16652,,14887,,2343,,inactive
trol (GeneID 45320),DRSC17714,,4056,,1706,,inactive
trol (GeneID 45320),DRSC17718,,3984,,1542,,inactive
trol (GeneID 45320),DRSC18613,,15017,,9491,,inactive
trol (GeneID 45320),DRSC18814,,11394,,11163,,inactive
mRF1 (GeneID 34720),DRSC02880,,9302,,1863,,inactive
CG9733 (GeneID 43601),DRSC16549,,7367,,3197,,inactive
Acp95EF + Spase22-23,DRSC14102,,18834,,18588,,inactive
Ugt302K1 (GeneID 53502),DRSC16086,,20604,,6224,,inactive
Shaw (GeneID 33599),DRSC00433,,2625,9313,1051,4029,inactive
Shaw (GeneID 33599),DRSC00788,,3725,9858,1201,3787,inactive
Shaw (GeneID 33599),DRSC21368,,3.18e5,3.62e5,1.67e5,1.43e5,inactive
CG17490 (GeneID 3355125),DRSC03794,,19842,,9085,,inactive
CG17490 (GeneID 3355125),DRSC03797,,2000,6410,597,2138,inactive
S6kII (GeneID 33139),DRSC20645,,3248,7868,1409,2689,inactive
lncRNA:CR43302 (GeneID 12798065),DRSC12668,,4699,,1752,,inactive
peg (GeneID 50050),DRSC15216,,17457,,2716,,inactive
CG9101 (GeneID 32452),DRSC20152,,14243,,10976,,inactive
Spn43Aa (GeneID 45041),DRSC06117,,18112,,4985,,inactive
Dlip1 (GeneID 53580),DRSC18460,,26199,,18506,,inactive
CG13043 (GeneID 39796),DRSC09924,,5221,,2880,,inactive
Or35a (GeneID 34918),DRSC03389,,2592,4995,1122,2669,inactive
CG5342 (GeneID 41389),DRSC15776,,12761,,2216,,inactive
klu (GeneID 39228),DRSC11357,,5335,,2128,,inactive
Snr1 (GeneID 40657),DRSC12369,,9980,,2484,,inactive
prt (GeneID 117368),DRSC16894,,16978,,8696,,inactive
Coq5 (GeneID 32272),DRSC19849,,26277,,12523,,inactive
Coq5 (GeneID 32272),DRSC21371,,3.85e5,3.90e5,1.59e5,1.31e5,inactive
Sas-4 (GeneID 40859),DRSC12505,,11917,,2448,,inactive
sofe (GeneID 32016),DRSC19751,,2809,5560,1131,2096,inactive
CG3376 (GeneID 37884),DRSC04362,,16458,,1719,,inactive
drd (GeneID 318102),DRSC19343,,22609,,8971,,inactive
drd (GeneID 318102),DRSC21466,,8.61e5,9.12e5,5.15e5,4.27e5,inactive
CG8958 (GeneID 32575),DRSC20134,,21900,,10240,,inactive
Uba5 (GeneID 32094),DRSC19775,,21176,,10380,,inactive
CG18731 (GeneID 59246),DRSC15377,,7264,,4164,,inactive
Dyb (GeneID 36362),DRSC07208,,13649,,4611,,inactive
Dyb (GeneID 36362),DRSC22862,,8.86e5,8.75e5,4.18e5,5.06e5,inactive
sev (GeneID 32039),DRSC20372,,18893,,9462,,inactive
mthl5 (GeneID 41438),DRSC16155,,14744,,3594,,inactive
CG14618 (GeneID 33134),DRSC20631,,21680,,9217,,inactive
Sac1 (GeneID 38137),DRSC08622,,12560,,2934,,inactive
Syngr (GeneID 36533),DRSC06003,,9258,,2635,,inactive
CG43610 (GeneID 12798580),DRSC00949,,23312,,9397,,inactive
CG11695 (GeneID 32106),DRSC19416,,26960,,7499,,inactive
CG14434 (GeneID 31632),DRSC17927,,18050,,6016,,inactive
GCS1 (GeneID 32073),DRSC19744,,1241,8388,832,2672,inactive
CG2811 (GeneID 37988),DRSC04318,,2749,5954,744,2290,inactive
CG8945 (GeneID 32693),DRSC20129,,18216,,8169,,inactive
CG8945 (GeneID 32693),DRSC20130,,23545,,7990,,inactive
CG8303 (GeneID 36858),DRSC07140,,4352,,2053,,inactive
CG34338 (GeneID 5740687),DRSC17535,,3317,,1220,,inactive
Tip60 (GeneID 31362),DRSC18661,Wg reporter activity raised,12587,28448,1431,2373,active
Hao + Pex6,DRSC06097,,8412,,2256,,inactive
Hao + Pex6,DRSC06704,,2125,6232,608,2581,inactive
CG14947 (GeneID 34628),DRSC02429,,3457,5408,1069,2193,inactive
dpy (GeneID 318824),DRSC00233,,12179,,7785,,inactive
dpy (GeneID 318824),DRSC00234,,18755,,8409,,inactive
dpy (GeneID 318824),DRSC00472,,3741,7571,1489,2661,inactive
RabX2 (GeneID 31971),DRSC18234,,14505,,12172,,inactive
CCT6 (GeneID 32518),DRSC20095,,2599,4483,1005,1612,inactive
CG4734 (GeneID 36477),DRSC06885,,9212,,4178,,inactive
CG4734 (GeneID 36477),DRSC22072,,4.58e5,4.46e5,96125,1.00e5,inactive
CG17199 (GeneID 42401),DRSC15192,,13882,,3980,,inactive
Zip88E (GeneID 41847),DRSC15562,,15325,,2304,,inactive
capu (GeneID 33611),DRSC00208,,18141,,8178,,inactive
capu (GeneID 33611),DRSC00209,,23091,,11236,,inactive
capu (GeneID 33611),DRSC00434,,2666,10000,962,3116,inactive
capu (GeneID 33611),DRSC00807,,18657,,5552,,inactive

Quoted from above, 11 entries:
predicted target,dsRNA,"reporter change call, replicate 1","firefly reporter light, replicate 1","firefly reporter light, replicate 2","Renilla control light, replicate 1","Renilla control light, replicate 2",call
Flo2 (GeneID 32425),DRSC19062,,3652,,1361,,inactive
Flo2 (GeneID 32425),DRSC20244,,20839,,12960,,inactive
CG32846 (GeneID 318244),DRSC08012,,2432,,1170,,inactive
l(2)05714 (GeneID 46066),DRSC03118,,8784,,3403,,inactive
CG3081 (GeneID 31395),DRSC18571,,15312,,8052,,inactive
Rab3-GAP (GeneID 34626),DRSC02001,,18561,,5168,,inactive
eIF3m (GeneID 36565),DRSC07142,,9785,,2064,,inactive
natalisin (GeneID 5740700),DRSC14966,,8987,,1579,,inactive
natalisin (GeneID 5740700),DRSC14967,,20784,,4740,,inactive
GstZ1 (GeneID 41132),DRSC16478,,5754,,2672,,inactive
CG18568 (GeneID 36549),DRSC06768,,10266,,4058,,inactive
